From the supplement of paper PMC10373366
The list shows a part of the results. Most values come without repeats; read them as rough.

test system: patient-derived ovarian cancer cells (PDC); test: cell growth inhibition ratio vs untreated control (CCK8); higher = stronger inhibition of cell viability; details: 10 µM; 48 h
Method: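 Natural product library (Topscience) screened at 10 µM final concentration for 48 h on ovarian cancer A2780 cells and patient-derived ovarian cancer cells (PDC) in 96-well plates; viability read by CCK8 and reported as inhibition ratio (%) relative to untreated control. Single-dose primary screen.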

SMILES	cell growth inhibition ratio
C/C1=C2N=C(/C=C3N=C(/C(C)=C4\[N-]C(C(CC(N)=O)C4(C)CCC(=O)NCC(C)OP(=O)([O-])OC4C(CO)OC(n5cnc6cc(C)c(C)cc65)C4O)C4(C)N=C1C(CCC(N)=O)C4(C)CC(N)=O)C(CCC(N)=O)C\3(C)C)C(CCC(N)=O)C/2(C)CC(N)=O.[CH3-].[Co+3] (configuration not stated) [Methylcobalamin]	11.6%
CC(C)=CCC[C@](C)(O[C@@H]1O[C@H](CO[C@@H]2O[C@H](CO)[C@@H](O)[C@H](O)[C@H]2O)[C@@H](O)[C@H](O)[C@H]1O)[C@H]1CC[C@]2(C)[C@@H]1[C@H](O)C[C@@H]1[C@@]3(C)CC[C@H](O[C@@H]4O[C@H](CO)[C@@H](O)[C@H](O)[C@H]4O)C(C)(C)[C@@H]3CC[C@]12C [Gypenoside XVII]	-5.85%
Cc1cc(O)cc(O)c1C(=O)O [Orsellinic acid]	-3.67%
O=c1ccc2cc3ccoc3cc2o1 [Psoralen]	-9.65%
O=C(O)[C@@H](O)[C@H](O)[C@H](O)[C@@H](O)C(=O)O [Mucic Acid]	-0.75%
C[C@@H]1O[C@@H](O[C@@H]2[C@H](O)[C@@H](O)[C@H](O[C@H]3CC[C@@]4(C)C(CC[C@]5(C)C4C=C[C@]46OC[C@@]7(CCC(C)(C)CC74)[C@@H](O)C[C@]65C)C3(C)C)O[C@@H]2CO[C@@H]2O[C@H](CO)[C@@H](O)[C@H](O)[C@H]2O)[C@H](O)[C@H](O)[C@H]1O (some centres not stated) [Saikosaponin C]	4.57%
COc1ccc([C@@H]2CC(=O)c3c(O)cc(O)cc3O2)cc1O [Hesperetin]	-17.6%
CCCCCCCCCCCCCCCCCCCCCCCCCCCCCCO [Triacontanol]	10.4%
COC(=O)c1ccc(O)c(O)c1 [Methyl protocatechuate]	-10.1%
O=c1c2ccccc2oc2ccccc12 [Xanthone]	-3.85%
COc1ccc(-c2coc3cc(O[C@@H]4O[C@H](CO)[C@@H](O)[C@H](O)[C@H]4O)ccc3c2=O)cc1O [Calycosin-7-O-beta-D-glucoside]	-6.95%
C[C@@H]1O[C@H]2O[C@H]3[C@@H](OC[C@H](O)[C@@H]3O)OC(=O)[C@]34CCC(C)(C)C[C@H]3C3=CC[C@H]5[C@@]6(C)C[C@H](O)[C@H](O[C@@H]7O[C@H](CO)[C@@H](O)[C@H](O)[C@H]7O[C@@H]7OC[C@H](OC(=O)C[C@](C)(O)CC(=O)O[C@@H]1[C@@H](O[C@@H]1OC[C@@H](O)[C@H](O)[C@H]1O)[C@H]2O)[C@H](O)[C@H]7O)[C@@](C)(CO)[C@@H]6CC[C@@]5(C)[C@]3(C)CC4 [Tubeimoside I]	56.2%

Taken from the listing for reference:
SMILES	cell growth inhibition ratio
C[C@@H]1O[C@@H](O[C@@H]2[C@H](O)[C@@H](O)[C@H](O[C@H]3CC[C@@]4(C)C(CC[C@]5(C)C4C=C[C@]46OC[C@@]7(CCC(C)(C)CC74)[C@@H](O)C[C@]65C)C3(C)C)O[C@@H]2CO[C@@H]2O[C@H](CO)[C@@H](O)[C@H](O)[C@H]2O)[C@H](O)[C@H](O)[C@H]1O (some centres not stated) [Saikosaponin C]	4.57%
COc1ccc([C@@H]2CC(=O)c3c(O)cc(O)cc3O2)cc1O [Hesperetin]	-17.6%
